Laboratory results reported in US12419871B2, “Biomolecules involved in Alzheimer's disease” (ELECTROPHORETICS LIMITED, priority 2015, dated 2025).

B1: Q6F5E8 (protein, UniProt Q6F5E8 1-1435, looked up)
chain: MAQTPDGISCELRGEITRFLWPKEVELLLKTWLPGEGAVQNHVLALLRWRAYLLHTTCLPLRVDCTFSYLEVQAMALQETPPQVTFELESLRELVLEFPGVAALEQLAQHVAAAIKKVFPRSTLGKLFRRPTPASMLARLERSSPSESTDPCSPCGGFLETYEALCDYNGFPFREEIQWDVDTIYHRQGCRHFSLGDFSHLGSRDLALSVAALSYNLWFRCLSCVDMKLSLEVSEQILHMMSQSSHLEELVLETCSLRGDFVRRLAQALAGHSSSGLRELSLAGNLLDDRGMTALSRHLERCPGALRRLSLAQTGLTPRGMRALGRALATNAAFDSTLTHLDLSGNPGALGASEDSGGLYSFLSRPNVLSFLNLAGTDTALDTVRGCSVGGWMTGRADWRAGRGGLGPPAGVANSLPPQLFAAVSRGCCTSLTHLDASRNVFSRTKSRAAPAALQLFLSRARTLRHLGLAGCKLPPDALRALLDGLALNTHLRDLHLDLSACELRSAGAQVIQDLVCDAGAVSSLDLADNGFGSDMVTLVLAIGRSRSLRHVALGRNFNVRCKETLDDVLHRIVQLMQDDDCPLQSLSVAESRLKLGASVLLRALATNPNLTALDISGNAMGDAGAKLLAKALRVNSRLRSVVWDRNHTSALGLLDVAQALEQNHSLKAMPLPLNDVAQAQRSRPELTARAVHQIQACLLRNNRADPASSDHTTRLQPLGLVSDPSEQEVNELCQSVQEHVELLGCGAGPQGEAAVRQAEDAIQNANFSLSILPILYEAGSSPSHHWQLGQKLEGLLRQVGEVCRQDIQDFTQATLDTARSLCPQMLQGSSWREQLEGVLAGSRGLPELLPEQLLQDAFTRLRDMRLSITGTLAESIVAQALAGLSAARDQLVESLAQQATVTMPPALPAPDGGEPSLLEPGELEGLFFPEEKEEEKEKDDSPPQKWPELSHGLHLVPFIHSAAEEAEPEPELAAPGEDAEPQAGPSARGSPSPAAPGPPAGPLPRMDLPLAGQPLRHPTRARPRPRRQHHHRPPPGGPQVPPALPQEGNGLSARVDEGVEEFFSKRLIQQDRLWAPEEDPATEGGATPVPRTLRKKLGTLFAFKKPRSTRGPRTDLETSPGAAPRTRKTTFGDLLRPPTRPSRGEELGGAEGDTSSPDPAGRSRPRYTRDSKAYSMILLPAEEEATLGARPDKRRPLERGETELAPSFEQRVQVMLQRIGVSRGSGGAEGKRKQSKDGEIKKAGSDGDIMDSSTEAPPISIKSRTHSVSADPSCRPGPGSQGPESATWKTLGQQLNAELRSRGWGQQDGPGPPSPGQSPSPCRTSPSPDSLGLPEDPCLGPRNEDGQLRPRPLSAGRRAVSVHEDQLQAPAERPLRLQRSPVLKRRPKLEAPPSPSLGSGLGTEPLPPQPTEPSSPERSPPSPATDQRGGGPNP
modifications: full-length
B2: P10619 (protein, UniProt P10619 1-480, looked up)
chain: MIRAAPPPLFLLLLLLLLLVSWASRGEAAPDQDEIQRLPGLAKQPSFRQYSGYLKGSGSKHLHYWFVESQKDPENSPVVLWLNGGPGCSSLDGLLTEHGPFLVQPDGVTLEYNPYSWNLIANVLYLESPAGVGFSYSDDKFYATNDTEVAQSNFEALQDFFRLFPEYKNNKLFLTGESYAGIYIPTLAVLVMQDPSMNLQGLAVGNGLSSYEQNDNSLVYFAYYHGLLGNRLWSSLQTHCCSQNKCNFYDNKDLECVTNLQEVARIVGNSGLNIYNLYAPCAGGVPSHFRYEKDTVVVQDLGNIFTRLPLKRMWHQALLRSGDKVRMDPPCTNTTAASTYLNNPYVRKALNIPEQLPQWDMCNFLVNLQYRRLYRSMNSQYLKLLSSQKYQILLYNGDVDMACNFMGDEWFVDSLNQKMEVQRRPWLVKYGDSGEQIAGFVKEFSHIAFLTIKGAGHMVPTDKPLAAFTMFSRFLNKQPY
modifications: full-length
B3: Q9NZW5 (protein, UniProt Q9NZW5 1-540, looked up)
chain: MQQVLENLTELPSSTGAEEIDLIFLKGIMENPIVKSLAKAHERLEDSKLEAVSDNNLELVNEILEDITPLINVDENVAELVGILKEPHFQSLLEAHDIVASKCYDSPPSSPEMNNSSINNQLLPVDAIRILGIHKRAGEPLGVTFRVENNDLVIARILHGGMIDRQGLLHVGDIIKEVNGHEVGNNPKELQELLKNISGSVTLKILPSYRDTITPQQVFVKCHFDYNPYNDNLIPCKEAGLKFSKGEILQIVNREDPNWWQASHVKEGGSAGLIPSQFLEEKRKAFVRRDWDNSGPFCGTISSKKKKKMMYLTTRNAEFDRHEIQIYEEVAKMPPFQRKTLVLIGAQGVGRRSLKNRFIVLNPTRFGTTVPFTSRKPREDEKDGQAYKFVSRSEMEADIKAGKYLEHGEYEGNLYGTKIDSILEVVQTGRTCILDVNPQALKVLRTSEFMPYVVFIAAPELETLRAMHKAVVDAGITTKLLTDSDLKKTVDESARIQRAYNHYFDLIIINDNLDKAFEKLQTAIEKLRMEPQWVPISWVY
modifications: full-length
B4: Q13136 (protein, UniProt Q13136 1-1202, looked up)
chain: MMCEVMPTISEAEGPPGGGGGHGSGSPSQPDADSHFEQLMVSMLEERDRLLDTLRETQETLALTQGKLHEVGHERDSLQRQLNTALPQEFAALTKELNVCREQLLEREEEIAELKAERNNTRLLLEHLECLVSRHERSLRMTVVKRQAQSPAGVSSEVEVLKALKSLFEHHKALDEKVRERLRVALERCSLLEEELGATHKELMILKEQNNQKKTLTDGVLDINHEQENTPSTSGKRSSDGSLSHEEDLAKVIELQEIISKQSREQSQMKERLASLSSHVTELEEDLDTARKDLIKSEEMNTKLQRDVREAMAQKEDMEERITTLEKRYLAAQREATSVHDLNDKLENEIANKDSMHRQTEDKNRQLQERLELAEQKLQQTLRKAETLPEVEAELAQRVAALSKAEERHGNIEERLRQMEAQLEEKNQELQRARQREKMNEEHNKRLSDTVDKLLSESNERLQLHLKERMAALEDKNSLLREVESAKKQLEETQHDKDQLVLNIEALRAELDHMRLRGASLHHGRPHLGSVPDFRFPMADGHTDSYSTSAVLRRPQKGRLAALRDEPSKVQTLNEQDWERAQQASVLANVAQAFESDADVSDGEDDRDTLLSSVDLLSPSGQADAHTLAMMLQEQLDAINKEIRLIQEEKENTEQRAEEIESRVGSGSLDNLGRFRSMSSIPPYPASSLASSSPPGSGRSTPRRIPHSPAREVDRLGVMTLLPPSREEVRDDKTTIKCETSPPSSPRALRLDRLHKGALHTVSHEDIRDIRNSTGSQDGPVSNPSSSNSSQDSLHKAPKKKGIKSSIGRLFGKKEKGRPGQTGKEALGQAGVSETDNSSQDALGLSKLGGQAEKNRKLQKKHELLEEARRQGLPFAQWDGPTVVVWLELWVGMPAWYVAACRANVKSGAIMSALSDTEIQREIGISNPLHRLKLRLAIQEIMSLTSPSAPPTSRTTLAYGDMNHEWIGNEWLPSLGLPQYRSYFMECLVDARMLDHLTKKDLRGQLKMVDSFHRNSFQCGIMCLRRLNYDRKELERKREESQSEIKDVLVWSNDRVIRWILSIGLKEYANNLIESGVHGALLALDETFDFSALALLLQIPTQNTQARAVLEREFNNLLVMGTDRRFDEDDDKSFRRAPSWRKKFRPKDIRGLAAGSAETLPANFRVTSSMSSPSMQPKKMQMDGNVSGTQRLDSATVRTYSC
modifications: full-length
B5: O95573 (protein, UniProt O95573 1-720, looked up)
chain: MNNHVSSKPSTMKLKHTINPILLYFIHFLISLYTILTYIPFYFFSESRQEKSNRIKAKPVNSKPDSAYRSVNSLDGLASVLYPGCDTLDKVFTYAKNKFKNKRLLGTREVLNEEDEVQPNGKIFKKVILGQYNWLSYEDVFVRAFNFGNGLQMLGQKPKTNIAIFCETRAEWMIAAQACFMYNFQLVTLYATLGGPAIVHALNETEVTNIITSKELLQTKLKDIVSLVPRLRHIITVDGKPPTWSEFPKGIIVHTMAAVEALGAKASMENQPHSKPLPSDIAVIMYTSGSTGLPKGVMISHSNIIAGITGMAERIPELGEEDVYIGYLPLAHVLELSAELVCLSHGCRIGYSSPQTLADQSSKIKKGSKGDTSMLKPTLMAAVPEIMDRIYKNVMNKVSEMSSFQRNLFILAYNYKMEQISKGRNTPLCDSFVFRKVRSLLGGNIRLLLCGGAPLSATTQRFMNICFCCPVGQGYGLTESAGAGTISEVWDYNTGRVGAPLVCCEIKLKNWEEGGYFNTDKPHPRGEILIGGQSVTMGYYKNEAKTKADFFEDENGQRWLCTGDIGEFEPDGCLKIIDRKKDLVKLQAGEYVSLGKVEAALKNLPLVDNICAYANSYHSYVIGFVVPNQKELTELARKKGLKGTWEELCNSCEMENEVLKVLSEAAISASLEKFEIPVKIRLSPEPWTPETGLVTDAFKLKRKELKTHYQADIERMYGRK
modifications: full-length

Assay: TMTcalibrator quantification of regulated proteins in AD CSF versus control
Set-up: species or system human
Conditions: CSF of AD patient versus control; non-modified peptides of each protein summed for three control and three AD cases

Question: With B1 as the molecule, how does the “Log2 AD/Control” value read?
Answer: −1.05

Question: For B2, which “Log2 AD/Control” value is on record?
Answer: 0.70

Question: Which “Log2 AD/Control” value does the source give for B3 here?
Answer: 0.72

Question: For B4, which “Log2 AD/Control” value is on record?
Answer: 0.85

Question: For B5, which “Log2 AD/Control” value is on record?
Answer: 0.82
